Source: PubChem BioAssay AID504467 (National Center for Advancing Translational Sciences (NCATS), 2011)
Screen size: about 330,000 compounds; about 7,700 (2.3%) were called active. The inconclusive results got no clear call from the source; some entries with a clear call stand among them for comparison. Calls follow the shape of the dose curve; as a rule, active = well fitted inhibition curve with a large enough effect; inconclusive = small, poorly fitted or top-dose-only effect, or effect the other way; inactive = flat fitted curve, though single readings scatter. Potencies of inconclusive entries are doubtful fits and often do not repeat.
% is scaled to controls: 0 for no effect and ±100 for the full control effect; potency is read from the fitted curve at half-maximal effect.

Test: qHTS screen for small molecules that inhibit ELG1-dependent DNA repair in human embryonic kidney (HEK293T) cells expressing luciferase-tagged ELG1; also: nearly all actives have a fitted effect of over 55% in size
Settings: HEK293T ELG1-luciferase reporter, luminescence, 16 h, DNA damage induced by 5-fluorouridine; activity change, negative = inhibition: at 46.1 µM (top of the series)
How it was run: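 In this reporter screen, reduction of luminescence relative to DMSO vehicle indicated activity. Compounds and 5-fluorouridine were added together to 2,000 cells per well, incubated for 16 hr at 37 °C, then developed with ONE-Glo.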
For `O=C(NC(=S)Nc1ncccn1)c1ccc(Cl)cc1Cl`, the Potency was inconclusive: 10.3 µM [activator, partial curve]. With `Fc1cc2[nH]c(=S)[nH]c2c(Br)c1N1CCSCC1` the Potency was inconclusive: 16.4 µM [activator, partial curve]. With `COCCN(C(=O)CSc1n[nH]c(-c2ccc(OC)cc2)n1)c1c(N)n(Cc2ccccc2)c(=O)[nH]c1=O` the Potency was “inactive”. For `C=CCn1c(C(c2ccccc2)c2ccccc2)n[nH]c1=S`, the Potency was “inactive”. In the case of `CC(=O)N(CCc1ccccc1C)Cc1cc2cc(C)ccc2[nH]c1=O`, the Potency is reported as “inactive”. With `COC(=O)c1cccc(NC(=O)C23CC4CC(C2)CC(n2cncn2)(C4)C3)c1` the Potency was “inactive”. In the case of `Cn1c(=NC(=O)c2ccccc2[N+](=O)[O-])sc2cccc(F)c21`, the Potency is reported as inconclusive: 2.31 µM [activator, full curve]. With `O=C1CSC2=NCN(c3ccccc3)CN12` the Potency was inconclusive: 29.1 µM [activator, single point]. With `COc1cccc(C2(C)NC(=O)N(CC(=O)Nc3ccc(N4CCOCC4)cc3)C2=O)c1` (centres undefined) the Potency was “inactive”. With `Clc1ccc(-c2ccccc2)cn1` the Potency was “inactive”. With `CCOCCCNC(=O)c1ccc2c(c1)ncn2-c1ccc(CC)cc1` the activity change, negative = inhibition was inconclusive: 17.5% [activator]. In the case of `Cc1ccc(C2C3=C(CC(C)(C)CC3=O)NC3=C2C(=O)c2ccccc23)cc1` (centres undefined), the Potency is reported as inconclusive: 32.6 µM [inhibitor, single point]. In the case of `CC(OC(=O)CCCNC(=O)c1ccc(Cl)cc1)C(=O)N(C)Cc1ccccc1` (centres undefined), the Potency is reported as inconclusive: 20.6 µM [inhibitor, single point]. With `COc1ccc(C(CC(=O)O)NC(=O)c2sc3ccccc3c2Cl)cc1` (centres undefined) the Potency was inconclusive: 10.3 µM [activator, partial curve, poor fit]. In the case of `COc1ccc(CCn2c(C(C)C)nc3c(c(=O)c4ccccc4n3C)c2=O)cc1`, the Potency is reported as active: 16.4 µM. In the case of `CSc1ccc(CNc2cccc3ccccc23)cc1`, the Potency is reported as inconclusive: 29.1 µM [activator, single point]. For `CC(C)C(=O)Nc1cccc(C(=O)Nc2ccccc2C(=O)O)c1`, the Potency was inconclusive: 23.1 µM [activator, partial curve, poor fit]. For `COc1ccccc1-c1c(C)nn2c(N3CCN(Cc4ccccc4)CC3)cc(C)nc12`, the Potency was inconclusive: 29.1 µM [inhibitor, single point]. For `CCOC(=O)C1=C(c2ccccc2)Nc2ncnn2C1c1ccccn1` (centres undefined), the Potency was inconclusive: 23.1 µM [inhibitor, partial curve]. With `CCCc1nc(SCC(=O)N2CCC(C)CC2)c2c(=O)n(C)c(=O)n(C)c2n1` the Potency was inconclusive: 20.6 µM [inhibitor, partial curve]. For `CCOC(=O)C(C)Sc1nc(=O)n2cc(C)ccc2n1` (centres undefined), the Potency was “inactive”. For `O=C(NCCC1=CCCCC1)c1cc2c(s1)CS(=O)(=O)C2`, the Potency was inconclusive: 29.1 µM [activator, single point]. For `CC(C)C[C@H]1CN=C(Nc2ccccc2)N1CC1CCC1`, the Potency was “inactive”. In the case of `CC(=O)c1ccccc1N(C(=O)c1ccco1)C(C(=O)NC1CCCC1)c1ccc(N2CCOCC2)cc1` (centres undefined), the Potency is reported as “inactive”. For `O=C(N/N=C\c1cccnc1)c1ccc(Br)s1`, the Potency was inconclusive: 18.3 µM [activator, partial curve]. For `N#CC(c1ccc(Cl)cc1)c1nc2ccccc2nc1C(F)(F)F` (centres undefined), the Potency was “inactive”. In the case of `Cc1cccc(C)c1NC(=O)CCN1C(=O)C2C3CCC(C3)C2C1=O` (centres undefined), the Potency is reported as “inactive”. In the case of `Cc1ccc(C(=O)NCCc2cccs2)cc1`, the Potency is reported as inconclusive: 0.517 µM [activator, full curve]. With `O=C(NCc1ccco1)c1ccc(Oc2ccccc2)cc1` the Potency was inconclusive: 20.6 µM [activator, partial curve]. For `O=C(COc1ccc(Cl)cc1Cl)N1CCCN(C(=O)COc2ccc(Cl)cc2Cl)CC1`, the Potency was inconclusive: 29.1 µM [inhibitor, single point]. With `COc1ccc(C(CC(=O)c2ccccc2)S(=O)(=O)c2ccc(C)cc2)cc1` (centres undefined) the Potency was inconclusive: 18.4 µM [activator, partial curve]. With `CC(C)Cn1c(N)c(C(=O)CSc2nc3ncc(Cl)cc3[nH]2)c(=O)n(C)c1=O` the Potency was inconclusive: 11.6 µM [inhibitor, single point]. With `O=C(c1ccc(F)cc1)c1ccc(-c2ccc(F)cc2)nc1` the Potency was inconclusive: 16.4 µM [activator, partial curve]. With `O=[N+]([O-])c1cccc(/C=N/Nc2nc(NCc3ccccc3)nc(N3CCOCC3)n2)c1O` the Potency was active: 20.6 µM. With `CC(C)[C@H](NC(=O)CCCn1nnc2ccccc2c1=O)C(=O)O` the Potency was inconclusive: 10.3 µM [activator, partial curve]. For `O=C(N/N=C\c1ccc2c(c1)OCO2)c1ccco1`, the Potency was inconclusive: 10.3 µM [activator, partial curve]. In the case of `CC[C@@H]1C(c2cccc(C)c2)=NN(c2ccccc2)[C@H]1C(=O)N1CCOC1=O`, the Potency is reported as inconclusive: 29.1 µM [inhibitor, single point]. In the case of `Cc1ccc(Nc2cc(-n3cccn3)ncn2)c(C)c1`, the Potency is reported as inconclusive: 5.17 µM [activator, full curve]. For `COc1ccc(C(=O)Nc2ccccc2C(=O)N2CCCCCC2)cc1OC`, the Potency was “inactive”. With `CCC(=O)Nc1cccc(-n2nnnc2SCC(=O)NCc2ccco2)c1` the Potency was “inactive”. With `CCn1c(CNc2cccc(Cl)c2)nnc1SCC(=O)OC1CCCCC1` the Potency was inconclusive: 25.9 µM [inhibitor, single point]. With `CC(OC(=O)c1ccccc1Br)C(=O)Nc1nc(-c2cccc([N+](=O)[O-])c2)cs1` (centres undefined) the Potency was inconclusive: 25.9 µM [inhibitor, partial curve]. In the case of `Cc1ccc(-c2csc(CC(N)=O)n2)cc1`, the Potency is reported as inconclusive: 29.1 µM [activator, single point]. With `COc1ccc(/C=N/NC(=O)c2cc3cc(OC)c(OC)cc3[nH]2)cc1` the Potency was “inactive”. In the case of `O=c1cc(N2CCOCC2)c2ccccc2o1`, the Potency is reported as inconclusive: 32.6 µM [activator, partial curve, poor fit]. With `CC(C)(C)OC(=O)CNC(=O)c1nc[nH]c1C(=O)NCc1ccc(CNC(=O)OC(C)(C)C)cc1` the Potency was inconclusive: 23.1 µM [inhibitor, single point]. With `O=C(COc1ccc(Br)cc1Cl)NC1CCCCC1` the Potency was inconclusive: 9.2 µM [activator, partial curve]. For `O=C(CCCN1C(=O)/C(=C/c2ccco2)SC1=S)Nc1ccccc1`, the Potency was inconclusive: 8.2 µM [inhibitor, partial curve, poor fit]. For `CC(=C/c1ccc(C(C)C)cc1)/C=N/NC(=O)CSc1ccccn1`, the Potency was inconclusive: 14.6 µM [activator, partial curve]. With `CN=c1scc(-c2ccccc2F)n1/N=C(\C)c1cccnc1` the Potency was inconclusive: 3.66 µM [activator, partial curve]. With `Cc1ccnc(NC(=O)CCCc2c[nH]c3ccccc23)c1` the Potency was inconclusive: 29.1 µM [activator, single point]. In the case of `COc1ccc(NC(=O)Nc2cc(C)ccc2F)cc1OC`, the Potency is reported as inconclusive: 16.4 µM [activator, single point]. For `Cc1ccc2c(COC(=O)CNS(=O)(=O)c3ccccc3)cc(=O)oc2c1`, the Potency was inconclusive: 16.4 µM [activator, single point]. In the case of `CC(=O)NC12CC3CC(C1)CC(C(=O)N(C)CC(=O)Nc1cccc(F)c1)(C3)C2`, the Potency is reported as “inactive”. In the case of `Oc1ccccc1/C=N/NC(=S)NC1CC2CCC1C2` (centres undefined), the Potency is reported as inconclusive: 7.3 µM [activator, partial curve]. In the case of `O=C(NC1CCCc2ccccc21)C1CCN(S(=O)(=O)N2CCCCCC2)CC1` (centres undefined), the Potency is reported as inconclusive: 29.1 µM [inhibitor, single point]. In the case of `O=C(CCn1c(=O)sc2ccccc21)NC1=NCCS1`, the Potency is reported as inconclusive: 32.6 µM [activator, partial curve, poor fit]. For `CCNC(=O)C/C(C)=N/NC(=O)C(=O)Nc1ccc(CC)cc1`, the Potency was inconclusive: 18.3 µM [activator, partial curve]. With `CCOCC(=O)Nc1cc(C(=O)Nc2ccccc2)ccc1Cl` the Potency was inconclusive: 29.1 µM [activator, single point]. In the case of `CN(C(=O)c1ccccn1)c1nnc(-c2cccnc2)s1`, the Potency is reported as inconclusive: 23.1 µM [activator, partial curve]. With `CCN(C(=O)COC(=O)CCCOc1ccccc1)c1c(N)n(Cc2ccccc2)c(=O)[nH]c1=O` the Potency was “inactive”. For `COc1ccnc(CN(C)C(=O)C2CCC(=O)N(Cc3cccc(C(F)(F)F)c3)C2)c1` (centres undefined), the Potency was “inactive”. In the case of `Cc1c(/C(O)=C2/C(=O)C(=O)N(CCN(C)C)C2c2ccc(C(C)C)cc2)cnn1-c1ccccc1` (centres undefined), the Potency is reported as “inactive”. In the case of `O=C(NC12CC3CC(CC(C3)C1)C2)c1ccc(COc2ccc(Cl)cc2[N+](=O)[O-])o1`, the Potency is reported as inconclusive: 18.4 µM [inhibitor, single point]. In the case of `CN(CC(=O)Nc1ccc(Cl)c(C(F)(F)F)c1)C(=O)CCN1C(=O)C2CCCCC2C1=O` (centres undefined), the Potency is reported as “inactive”. With `COc1cc2c(C(=O)N3CCOCC3)c(CSc3ccccc3)n(C)c2cc1Br` the Potency was inconclusive: 20.6 µM [inhibitor, single point]. For `CC(C)Cc1ccc(CN2CCCC(NC(=O)c3cccc(-n4cnnc4)c3)C2)cc1` (centres undefined), the Potency was inconclusive: 29.1 µM [inhibitor, single point]. With `CCC(=O)Oc1ccc(C(=O)Nc2cccc(C(=O)NC(C)(C)C)c2)cc1` the Potency was “inactive”. With `Cn1ncc([N+](=O)[O-])c1C(=O)Nc1ccc(-c2nc3ccccc3o2)cc1` the Potency was inconclusive: 9.2 µM [activator, partial curve].
